Patent US20220306695A1, “COMPSTATIN ANALOGUES AND THEIR MEDICAL USES” (priority 2019, published 2022)
Results are given in words; binding and its absence hold for the method and conditions named. Some entries that bind do so weakly or less than the wild type.

Chains of the proteins cited; added tags and fusions are not shown. Residues count along the entry.
UniProt P01024, residues 23-1663: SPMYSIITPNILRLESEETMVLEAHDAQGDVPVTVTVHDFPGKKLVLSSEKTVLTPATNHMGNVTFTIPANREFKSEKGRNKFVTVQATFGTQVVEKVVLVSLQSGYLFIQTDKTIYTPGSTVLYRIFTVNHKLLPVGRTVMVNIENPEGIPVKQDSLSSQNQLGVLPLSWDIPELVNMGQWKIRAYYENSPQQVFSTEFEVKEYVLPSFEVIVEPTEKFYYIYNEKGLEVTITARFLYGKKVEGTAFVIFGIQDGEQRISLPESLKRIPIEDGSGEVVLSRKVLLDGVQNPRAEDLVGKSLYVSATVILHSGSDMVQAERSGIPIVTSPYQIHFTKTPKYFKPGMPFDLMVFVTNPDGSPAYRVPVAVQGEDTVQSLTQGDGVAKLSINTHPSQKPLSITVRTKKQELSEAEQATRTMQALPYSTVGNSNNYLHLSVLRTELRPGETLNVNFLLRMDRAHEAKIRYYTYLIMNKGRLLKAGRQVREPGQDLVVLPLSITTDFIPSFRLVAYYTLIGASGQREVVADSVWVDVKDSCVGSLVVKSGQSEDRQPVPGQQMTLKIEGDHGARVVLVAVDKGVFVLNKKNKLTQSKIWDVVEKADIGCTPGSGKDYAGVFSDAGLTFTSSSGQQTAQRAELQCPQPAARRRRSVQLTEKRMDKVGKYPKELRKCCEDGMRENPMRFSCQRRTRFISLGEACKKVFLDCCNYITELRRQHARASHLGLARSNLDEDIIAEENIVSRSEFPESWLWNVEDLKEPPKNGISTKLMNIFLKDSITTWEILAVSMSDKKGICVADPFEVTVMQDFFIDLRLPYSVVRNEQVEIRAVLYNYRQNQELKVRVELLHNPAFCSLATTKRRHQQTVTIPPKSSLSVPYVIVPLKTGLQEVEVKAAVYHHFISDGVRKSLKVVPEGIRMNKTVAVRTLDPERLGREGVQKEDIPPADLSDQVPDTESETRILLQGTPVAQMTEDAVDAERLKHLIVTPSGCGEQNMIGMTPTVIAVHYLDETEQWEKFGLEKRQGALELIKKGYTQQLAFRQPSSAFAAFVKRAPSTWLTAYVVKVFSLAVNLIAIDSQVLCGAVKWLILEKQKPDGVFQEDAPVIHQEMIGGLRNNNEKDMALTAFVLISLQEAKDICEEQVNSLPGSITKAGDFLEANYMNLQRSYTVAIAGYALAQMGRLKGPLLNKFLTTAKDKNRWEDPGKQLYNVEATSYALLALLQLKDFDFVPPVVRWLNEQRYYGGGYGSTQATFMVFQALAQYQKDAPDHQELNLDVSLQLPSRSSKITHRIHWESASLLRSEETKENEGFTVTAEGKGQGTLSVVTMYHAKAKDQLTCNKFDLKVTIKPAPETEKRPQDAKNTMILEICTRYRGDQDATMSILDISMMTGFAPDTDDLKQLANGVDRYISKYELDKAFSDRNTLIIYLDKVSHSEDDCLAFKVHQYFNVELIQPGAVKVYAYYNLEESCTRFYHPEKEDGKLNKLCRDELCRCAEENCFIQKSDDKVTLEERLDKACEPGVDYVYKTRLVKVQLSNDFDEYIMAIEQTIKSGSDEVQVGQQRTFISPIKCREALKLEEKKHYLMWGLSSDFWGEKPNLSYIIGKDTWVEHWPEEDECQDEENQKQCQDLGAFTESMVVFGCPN

Molecular target: Human C3 (human, UniProt P01024 23-1663)
Assay: told in the text of Example 5; method not given

binding: binds
Binder: FCIWQDWGEHRCTGAES (N-acetyl; C-terminal amide; disulfide C2-C12; W4 is 1-Me-Trp) [Compound 61]
